The list is a part of this screen's results and no random one: its compounds were picked by chemical class. Other doses and runs of a compound may be missing. T/C gives the treated animals as a percentage of the vehicle group. Schedule codes are those of the source, taken here to give the interval after Q, in days (D) or hours (H), and the number of doses after X. Some entries give survivors of the animals treated and no T/C: the source files T/C as zero there, which appears to mark a toxic dose or a test without result, not a measured value. Survivors were counted at the toxicity check; its day is shown where the source gives one, and later deaths do not show.
Test system: HT29 intrarenal xenograft, nude mice, tumor weight change
Assay: NCI In Vivo Anticancer Drug Screen. Data for tumor model HT29;CX-1 Human Adenocarcinoma (MER+) (intrarenal inoculation) in NU/NU BALB/C (nude) mice
Conditions: T/C endpoint: mean tumor weight change, schedule: Q04DX004 (sc), higher T/C = larger tumour; for T/C: evaluated on day 15
Procedure: The antitumor activity of compounds was measured in mice bearing transplantable tumors. Survival or tumor size were measured and the results are expressed as the measurement made in the treated group (T) divided by the measurement made in the vehicle treated control group (C). The tumor model used in this assay is HT29;CX-1 Human Adenocarcinoma (MER+) (intrarenal inoculation) in NU/NU BALB/C (nude) mice

## NC1CCCCC1.NP(=O)(O)N(CCCl)CCCl
dose: 37.5 mg/kg/injection, vehicle: water
  T/C: 27 % of control
dose: 75.0 mg/kg/injection, vehicle: water
  T/C: 36 % of control
dose: 150.0 mg/kg/injection, vehicle: saline
  T/C: 61 % of control
dose: 150.0 mg/kg/injection, vehicle: water
  T/C: 108 % of control
dose: 300.0 mg/kg/injection, vehicle: saline
  survivor count: 0 of 3 on day 15
dose: 600.0 mg/kg/injection, vehicle: saline
  survivor count: 0 of 3 on day 15

From PubChem BioAssay AID208 (DTP/NCI, 2004)
